At least one structure is not confirmed: it was looked up by name or label, or the drawing left a doubt.
System: DCs induced from C57BL/6 mouse bone marrow cells with Flt-3L
Assay: Comparison with known regulatory DC-inducing agents, DC induction system using Flt-3L (Example 3)
Type: cell-based
Conditions: Flt-3L system; extract and γ-oryzanol 50 μg/mL; rapamycin 10 ng/mL from day 3; LPS 1 ng/mL
Description: The hexane fraction (No. 8) (in Table 1) prepared in Example 1 from wheat bran fermented with koji was used for the test. Since GM-CSF is used as a DC-inducing agent in the above-mentioned reports concerning rapamycin and IL-10/TGF-β, DCs were induced in each system of GM-CSF and Flt-3L and then each regulatory DC-inducing agent was evaluated.
In a manner similar to the experimental method in Example 2, bone marrow cells were prepared from C57BL/6 mouse thigh bone, the cells were suspended at 1×10^6 cells/mL in a medium, and then Flt-3L was added at 100 ng/mL. An extract from wheat bran fermented with koji, γ-oryzanol (Wako Pure Chemical Industries, Japan), or IL-10/TGF-β (produced by R&D systems and Peprotech, respectively) were added at 50 μg/mL for the former two or at 20 ng/mL for the latter two on day 0 after the initiation of culture. Rapamycin (Wako Pure Chemical Industries, Japan) was added at 10 ng/mL on day 3 after the initiation of culture. Culture was performed for 7 days and, at the time point of the last 24 hours of culture, LPS was added in a final concentration of 1 ng/mL.
Regarding an evaluation method, expression intensities of the cell-surface DC activation markers CD40, CD86 and MHCII and the suppression marker PD1L were evaluated by analysis using a flow cytometer. A gate was set on mDCs similarly to Example 1 and then analysis was conducted. […]

For `CO[C@H]1C[C@@H]2CC[C@@H](C)[C@@](O)(O2)C(=O)C(=O)N2CCCC[C@H]2C(=O)O[C@H]([C@H](C)C[C@@H]2CC[C@@H](O)[C@H](OC)C2)CC(=O)[C@H](C)/C=C(\C)[C@@H](O)[C@@H](OC)C(=O)[C@H](C)C[C@H](C)/C=C/C=C/C=C/1C` [rapamycin], the “CD40 expression in response to LPS stimulation” value was “slight suppression effects were observed” and the “CD86 expression in response to LPS stimulation” value was “slight suppression effects were observed”.
